Test results reported in paper PMC7536833.
No constants are given. Whether binding was seen depends on the method and setting. Binding seen in cells or lysates may run through a third protein. These calls come from enrichment with a bait or labelling near it, and not all partners need be listed.

B1: Get3 (protein, UniProt Q12154 1-354)
chain: MDLTVEPNLHSLITSTTHKWIFVGGKGGVGKTTSSCSIAIQMALSQPNKQFLLISTDPAHNLSDAFGEKFGKDARKVTGMNNLSCMEIDPSAALKDMNDMAVSRANNNGSDGQGDDLGSLLQGGALADLTGSIPGIDEALSFMEVMKHIKRQEQGEGETFDTVIFDTAPTGHTLRFLQLPNTLSKLLEKFGEITNKLGPMLNSFMGAGNVDISGKLNELKANVETIRQQFTDPDLTTFVCVCISEFLSLYETERLIQELISYDMDVNSIIVNQLLFAENDQEHNCKRCQARWKMQKKYLDQIDELYEDFHVVKMPLCAGEIRGLNNLTKFSQFLNKEYNPITDGKVIYELEDKE
B2: Mps2 (protein, UniProt P53159 1-387)
chain: MSNGAFDAIFEYAWGQIDKPISGDFIYGKDLPKLIEIIENIFQKAQKSGSYELRLPLFSEINKDLFRTFSNTKTFFKIHKEEFDDIFFNLVNHPLREILENAFIGVDSIPSDFIVSMNLNSPSKFLVENKNKNTEGAGISTPRKKLTESPIKLLSRNNIGKALEVQVEELKRELTAKQSLLQENERQVSELKIRLETYQEKYASIQQRFSDLQKARQVEDNQNSSRTSDPGSPLVTGIDQKAILEEFRRRLQRQTDTISFLKDQIRRERGLNCSNDKVSHSKRKHATTDGDGTFKNFISAVPSNIWVKATIRIIVCFALLAGVLPYIRKYVYAHDTPSQNSRLQLSWWENSGILSKIVWFFEDQTDLETEYRSNANVDDAYSRVFGI

Biological target: T1, TAP-Csm4 (budding yeast (SK1 background)) (UniProt Q08955)
T1 sequence: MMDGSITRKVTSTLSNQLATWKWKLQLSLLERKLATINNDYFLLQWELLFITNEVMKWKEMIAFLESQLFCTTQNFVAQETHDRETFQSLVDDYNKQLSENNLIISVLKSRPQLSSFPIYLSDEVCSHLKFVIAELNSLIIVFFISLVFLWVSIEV
Assay: affinity purification with mass spectrometry; TAP-Csm4 purified from lysate of yeast cells 6 h in synchronous meiosis on Dynabeads cross-linked with rabbit IgG; eluate digested by trypsin, LTQ Orbitrap Velos

Row | binding | Binder
1 | binds | B1
2 | binds | B2
